# Experimental data: PubChem BioAssay AID1224830 (NIAID, 2016)
# Purpose: 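Host factors that control LPS-induced TNF expression in human macrophages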 (primary screen)
# System: human THP-1 monocytic leukaemia cells, TNF dual-luciferase reporter clone, PMA-differentiated to macrophage-like cells
# Reagents: siRNA pool against human genes, 50 nM
# Timing: LPS for 4 h, given about 3 days after siRNA transfection
# Treatment: bacterial LPS (TLR4 ligand), 10 ng/ml
# Detection: 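Ratio of firefly to renilla light, scaled to the plate median and expressed as a robust z-score per replicate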
# Direction: TNF reporter robust z-score: higher = stronger TNF reporter response to LPS
# Active means: 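a well is active when its z-score exceeds 2.8 or falls below -1.5; control wells carry no call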
# Here is a random part of about 18,000 reagents tested. Over the whole deposit, about 2,900 (16%) are marked active. 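Calls are made per well; low scores hint the gene aids the LPS response, high scores that it dampens it.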 Reagents against one gene are numbered here. Repeated entries: four replicate wells of each siRNA pool.
Gene,reagent no.,TNF reporter robust z-score,Outcome
TNFRSF13C (TNF receptor superfamily member 13C),1,0.58,inactive
TNFRSF13C (TNF receptor superfamily member 13C),1,0.46,inactive
TNFRSF13C (TNF receptor superfamily member 13C),1,0.95,inactive
TNFRSF13C (TNF receptor superfamily member 13C),1,0.06,inactive
GNG4 (G protein subunit gamma 4),1,-1.47,inactive
GNG4 (G protein subunit gamma 4),1,-0.7,inactive
GNG4 (G protein subunit gamma 4),1,-1.05,inactive
GNG4 (G protein subunit gamma 4),1,-0.86,inactive
TRAIP (TRAF interacting protein),1,-1.44,inactive
TRAIP (TRAF interacting protein),1,0.22,inactive
TRAIP (TRAF interacting protein),1,-1.62,active
TRAIP (TRAF interacting protein),1,0.28,inactive
LCP2 (lymphocyte cytosolic protein 2),1,-0.51,inactive
LCP2 (lymphocyte cytosolic protein 2),1,-0.33,inactive
LCP2 (lymphocyte cytosolic protein 2),1,0.2,inactive
LCP2 (lymphocyte cytosolic protein 2),1,0.64,inactive
SLC25A28,1,-1,inactive
SLC25A28,1,-0.39,inactive
SLC25A28,1,-0.69,inactive
SLC25A28,1,-0.47,inactive
FAM135A (family with sequence similarity 135 member A),1,-0.22,inactive
FAM135A (family with sequence similarity 135 member A),1,-0.73,inactive
FAM135A (family with sequence similarity 135 member A),1,-0.37,inactive
FAM135A (family with sequence similarity 135 member A),1,-1.13,inactive
ODF2 (outer dense fiber of sperm tails 2),1,-1.47,inactive
ODF2 (outer dense fiber of sperm tails 2),1,-0.94,inactive
ODF2 (outer dense fiber of sperm tails 2),1,-1.17,inactive
ODF2 (outer dense fiber of sperm tails 2),1,-0.51,inactive
TMEM255B (transmembrane protein 255B),1,1.07,inactive
TMEM255B (transmembrane protein 255B),1,2.15,inactive
TMEM255B (transmembrane protein 255B),1,1.45,inactive
TMEM255B (transmembrane protein 255B),1,2.06,inactive
"QKI (QKI, KH domain containing RNA binding)",1,1.7,inactive
"QKI (QKI, KH domain containing RNA binding)",1,1.01,inactive
"QKI (QKI, KH domain containing RNA binding)",1,-0.82,inactive
"QKI (QKI, KH domain containing RNA binding)",1,-0.96,inactive
SYT1 (synaptotagmin 1),1,-1.59,active
SYT1 (synaptotagmin 1),1,-1.31,inactive
SYT1 (synaptotagmin 1),1,-1.63,active
SYT1 (synaptotagmin 1),1,-1.83,active
RRM2 (ribonucleotide reductase regulatory subunit M2),1,-0.2,inactive
RRM2 (ribonucleotide reductase regulatory subunit M2),1,-0.25,inactive
RRM2 (ribonucleotide reductase regulatory subunit M2),1,-0.82,inactive
RRM2 (ribonucleotide reductase regulatory subunit M2),1,0.82,inactive
RRM2 (ribonucleotide reductase regulatory subunit M2),2,2.08,inactive
RRM2 (ribonucleotide reductase regulatory subunit M2),2,1.18,inactive
RRM2 (ribonucleotide reductase regulatory subunit M2),2,3.04,active
RRM2 (ribonucleotide reductase regulatory subunit M2),2,1.22,inactive
CCDC27 (coiled-coil domain containing 27),1,0.81,inactive
CCDC27 (coiled-coil domain containing 27),1,-0.43,inactive
CCDC27 (coiled-coil domain containing 27),1,0.65,inactive
CCDC27 (coiled-coil domain containing 27),1,1.9,inactive
STIP1 (stress induced phosphoprotein 1),1,0.04,inactive
STIP1 (stress induced phosphoprotein 1),1,0.54,inactive
STIP1 (stress induced phosphoprotein 1),1,0.35,inactive
STIP1 (stress induced phosphoprotein 1),1,0.13,inactive
PLXNA3 (plexin A3),1,-2.59,active
PLXNA3 (plexin A3),1,-0.34,inactive
PLXNA3 (plexin A3),1,0.25,inactive
PLXNA3 (plexin A3),1,0.82,inactive
SYT7 (synaptotagmin 7),1,0.51,inactive
SYT7 (synaptotagmin 7),1,0.34,inactive
SYT7 (synaptotagmin 7),1,0.07,inactive
SYT7 (synaptotagmin 7),1,0.54,inactive
ZMAT5 (zinc finger matrin-type 5),1,-0.24,inactive
ZMAT5 (zinc finger matrin-type 5),1,-0.64,inactive
ZMAT5 (zinc finger matrin-type 5),1,-0.45,inactive
ZMAT5 (zinc finger matrin-type 5),1,0.85,inactive
DMP1 (dentin matrix acidic phosphoprotein 1),1,-0.52,inactive
DMP1 (dentin matrix acidic phosphoprotein 1),1,0.09,inactive
DMP1 (dentin matrix acidic phosphoprotein 1),1,-0.18,inactive
DMP1 (dentin matrix acidic phosphoprotein 1),1,0.82,inactive
DEFB110 (defensin beta 110),1,0.5,inactive
DEFB110 (defensin beta 110),1,2.1,inactive
DEFB110 (defensin beta 110),1,1.75,inactive
DEFB110 (defensin beta 110),1,2.53,inactive
DEFB110 (defensin beta 110),2,3.27,active
DEFB110 (defensin beta 110),2,4.04,active
DEFB110 (defensin beta 110),2,2.82,active
DEFB110 (defensin beta 110),2,1.14,inactive
SLC66A2,1,0.23,inactive
SLC66A2,1,1.31,inactive
SLC66A2,1,0.87,inactive
SLC66A2,1,0.95,inactive
NLK (nemo like kinase),1,-0.62,inactive
NLK (nemo like kinase),1,-0.53,inactive
NLK (nemo like kinase),1,-0.6,inactive
NLK (nemo like kinase),1,0.2,inactive
C22orf42 (chromosome 22 open reading frame 42),1,1.95,inactive
C22orf42 (chromosome 22 open reading frame 42),1,0.8,inactive
C22orf42 (chromosome 22 open reading frame 42),1,1,inactive
C22orf42 (chromosome 22 open reading frame 42),1,0,inactive
ZNF439 (zinc finger protein 439),1,1.8,inactive
ZNF439 (zinc finger protein 439),1,1.21,inactive
ZNF439 (zinc finger protein 439),1,1.53,inactive
ZNF439 (zinc finger protein 439),1,2.08,inactive
FRAS1 (Fraser extracellular matrix complex subunit 1),1,-0.73,inactive
FRAS1 (Fraser extracellular matrix complex subunit 1),1,-0.55,inactive
FRAS1 (Fraser extracellular matrix complex subunit 1),1,-0.82,inactive
FRAS1 (Fraser extracellular matrix complex subunit 1),1,-0.53,inactive
BET1L (Bet1 golgi vesicular membrane trafficking protein like),1,-1.84,active
BET1L (Bet1 golgi vesicular membrane trafficking protein like),1,-0.89,inactive
BET1L (Bet1 golgi vesicular membrane trafficking protein like),1,-0.58,inactive
BET1L (Bet1 golgi vesicular membrane trafficking protein like),1,-0.67,inactive
MRPL39 (mitochondrial ribosomal protein L39),1,,inactive
MRPL39 (mitochondrial ribosomal protein L39),1,-0.02,inactive
MRPL39 (mitochondrial ribosomal protein L39),1,-0.48,inactive
MRPL39 (mitochondrial ribosomal protein L39),1,-0.6,inactive
MRPL39 (mitochondrial ribosomal protein L39),1,0.02,inactive
YIF1A,1,-1.21,inactive
YIF1A,1,-0.81,inactive
YIF1A,1,-0.6,inactive
YIF1A,1,-0.36,inactive

Not a retest: entries from further up.
Gene,reagent no.,TNF reporter robust z-score,Outcome
DEFB110 (defensin beta 110),2,2.82,active
DEFB110 (defensin beta 110),2,1.14,inactive
SLC66A2,1,0.23,inactive
SLC66A2,1,1.31,inactive
SLC66A2,1,0.87,inactive
SLC66A2,1,0.95,inactive
NLK (nemo like kinase),1,-0.62,inactive
NLK (nemo like kinase),1,-0.53,inactive
NLK (nemo like kinase),1,-0.6,inactive
NLK (nemo like kinase),1,0.2,inactive
C22orf42 (chromosome 22 open reading frame 42),1,1.95,inactive
C22orf42 (chromosome 22 open reading frame 42),1,0.8,inactive
C22orf42 (chromosome 22 open reading frame 42),1,1,inactive
C22orf42 (chromosome 22 open reading frame 42),1,0,inactive
